In publication PMC10154458:
Changes are numbered by the printed parent chain. Names and notes keep the numbering of the source. No constants are given. Whether binding was seen depends on the method and setting. In cells and extracts the contact can be indirect. Some binding calls cover weakened binding; strength is not graded here. For some assays here: Tags and fused reporters may be left off the sequences shown.

Amino acid sequences for entries named in this document (tags omitted).
UniProt P63045: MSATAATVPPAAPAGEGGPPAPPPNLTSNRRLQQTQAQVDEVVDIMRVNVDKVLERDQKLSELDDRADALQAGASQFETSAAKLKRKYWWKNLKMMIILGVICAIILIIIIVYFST
UniProt P60881: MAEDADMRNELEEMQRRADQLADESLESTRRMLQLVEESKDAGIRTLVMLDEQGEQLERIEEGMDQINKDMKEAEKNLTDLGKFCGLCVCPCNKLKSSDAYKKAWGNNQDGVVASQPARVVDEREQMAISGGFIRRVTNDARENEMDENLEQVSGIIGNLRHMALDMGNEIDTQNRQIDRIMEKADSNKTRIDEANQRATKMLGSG

Experiments:
GST-SNAPIN = target: T1, GST-SNAPIN (UniProt P60192); assay: pull-down; GST-SNAP25 (GST-SNAPIN in Figure 3C) used to pull down the co-transfected SNARE protein from total extracts of 293T cells, with GFP vector or GFP-SNAP23 (WT, truncated or mutant) co-expressed; Western blot; only the target purified
T1 sequence: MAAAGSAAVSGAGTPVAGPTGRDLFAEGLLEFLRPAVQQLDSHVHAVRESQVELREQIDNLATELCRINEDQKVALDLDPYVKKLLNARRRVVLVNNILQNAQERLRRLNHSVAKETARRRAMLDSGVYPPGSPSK

mCherry-VAMP8 = target: T2, mCherry-VAMP8 (UniProt Q9WUF4); assay: co-IP; 293T cells co-transfected with GFP-SNAP23 (WT, truncated or mutant) and an mCherry-tagged SNARE protein; lysates in NP-40 buffer (1% NP-40, 150 mM NaCl, 50 mM Tris Base, 1% Triton X-100) immunoprecipitated with anti-mCherry antibody at 4°C, blotted with anti-GFP
T2 sequence: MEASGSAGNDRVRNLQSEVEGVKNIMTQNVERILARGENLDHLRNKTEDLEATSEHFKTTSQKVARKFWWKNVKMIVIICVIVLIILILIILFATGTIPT

mCherry-VAMP2 = mCherry-VAMP2 (UniProt P63045); assay: as above
mCherry-STX3 = target: T3, mCherry-STX3 (UniProt Q08849); assay: as above
T3 sequence: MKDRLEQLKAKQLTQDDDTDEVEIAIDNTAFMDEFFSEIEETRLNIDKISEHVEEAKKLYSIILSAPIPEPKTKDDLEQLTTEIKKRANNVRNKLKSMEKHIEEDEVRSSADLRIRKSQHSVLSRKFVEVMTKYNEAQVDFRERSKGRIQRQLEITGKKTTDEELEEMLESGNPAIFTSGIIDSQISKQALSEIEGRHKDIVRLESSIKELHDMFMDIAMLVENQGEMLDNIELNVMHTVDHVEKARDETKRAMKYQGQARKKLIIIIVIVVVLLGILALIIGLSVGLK

GST-tagged SNAP25 = GST-tagged SNAP25 (UniProt P60881); assay: pull-down; GST-SNAP25 (GST-SNAPIN in Figure 3C) used to pull down the co-transfected SNARE protein from total extracts of 293T cells, with GFP vector or GFP-SNAP23 (WT, truncated or mutant) co-expressed; Western blot; only the target purified

SNAP25 co-transfected in 293T cells (Figure 3C) (from UniProt P60881 1-206)
binding (GST-SNAPIN): binds

B1: GFP-SNAP23 S95D (protein, UniProt O70377 1-210)
chain: MDDLSPEEIQLRAHQVTDESLESTRRILGLAIESQDAGIKTITMLDEQGEQLNRIEEGMDQINKDMREAEKTLTELNKCCGLCVCPCNRTKNFEDGKNYKATWGDGGDSSPSNVVSKQPSRITNGQPQQTTGAASGGYIKRITNDAREDEMEENLTQVGSILGNLKNMALDMGNEIDAQNQQIQKITEKADTNKNRIDIANTRAKKLIDS
binding (mCherry-VAMP8): binds
binding (mCherry-VAMP2): binds
binding (mCherry-STX3): binds

B2: GFP-tagged full-length WT SNAP23 (amino acids 1-210) (protein, UniProt O70377 1-210)
chain: B1 chain with D95S
binding (mCherry-VAMP8): binds
binding (mCherry-VAMP2): binds
binding (mCherry-STX3): binds

B3: mCherry-VAMP8 (protein, UniProt Q9WUF4 1-100)
chain: T2 sequence
binding (GST-tagged SNAP25): binds
